# Data from PubChem BioAssay (NCATS).
# Chains of the proteins cited; added tags and fusions are not shown. Lines headed by an entry give the natural chain unless they say otherwise; changes in a name come on top.
# UniProt Q8WZA2: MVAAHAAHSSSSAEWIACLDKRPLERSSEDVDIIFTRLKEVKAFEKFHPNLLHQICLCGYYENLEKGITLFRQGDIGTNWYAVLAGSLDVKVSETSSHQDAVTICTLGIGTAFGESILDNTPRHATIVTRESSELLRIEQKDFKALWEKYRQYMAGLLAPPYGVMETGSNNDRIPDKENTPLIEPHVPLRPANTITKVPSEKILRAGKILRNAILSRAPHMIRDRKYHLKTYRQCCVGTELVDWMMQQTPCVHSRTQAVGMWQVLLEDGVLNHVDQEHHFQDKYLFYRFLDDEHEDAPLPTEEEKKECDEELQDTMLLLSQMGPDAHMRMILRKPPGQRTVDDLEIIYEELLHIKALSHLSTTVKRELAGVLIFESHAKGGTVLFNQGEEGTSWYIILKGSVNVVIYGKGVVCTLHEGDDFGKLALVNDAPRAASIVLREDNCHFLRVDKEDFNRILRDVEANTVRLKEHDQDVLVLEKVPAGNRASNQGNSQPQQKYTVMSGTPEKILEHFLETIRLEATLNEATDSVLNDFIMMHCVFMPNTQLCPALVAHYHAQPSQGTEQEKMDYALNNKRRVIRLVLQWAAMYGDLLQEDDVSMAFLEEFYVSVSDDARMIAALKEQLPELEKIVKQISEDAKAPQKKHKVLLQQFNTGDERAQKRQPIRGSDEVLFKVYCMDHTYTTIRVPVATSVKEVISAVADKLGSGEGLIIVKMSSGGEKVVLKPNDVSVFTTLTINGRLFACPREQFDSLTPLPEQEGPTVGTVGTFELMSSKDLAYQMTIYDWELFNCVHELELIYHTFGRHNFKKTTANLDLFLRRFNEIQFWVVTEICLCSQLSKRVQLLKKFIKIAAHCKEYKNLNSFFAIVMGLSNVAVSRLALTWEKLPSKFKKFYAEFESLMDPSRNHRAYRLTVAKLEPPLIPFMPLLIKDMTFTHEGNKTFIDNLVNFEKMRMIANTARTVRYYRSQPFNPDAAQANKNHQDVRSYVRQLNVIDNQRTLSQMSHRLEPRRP
# Inconclusive results, whose numbers are uncertain, are shown with a selection of clear calls. A potency beside an inconclusive call is a rough fit, not a confirmed value. Calls of active or inactive are those of the source. Calls come from the whole dose curve; as a rule, active = well fitted curve in the direction sought with a large enough effect; inconclusive = small, poorly fitted or top-dose-only effect, or another doubt; inactive = no such curve, though single readings can be large; an effect the other way counts as inactive or inconclusive.
# Target: Rap guanine nucleotide exchange factor 4 (Homo sapiens) (UniProt Q8WZA2)
# Test: Confirmatory qHTS for antagonist of cAMP-regulated guanine nucleotide exchange factor 4 (EPAC2) (AID 1645885); note: nearly all actives have a fitted effect of over 25% in size; for activity change, negative = inhibition: % is set by controls: 0 for no effect and ±100 for the full control effect
# Conditions: EPAC2 Rap1B-BODIPY-GDP exchange fluorescence, biochemical; activity change, negative = inhibition: at 12.7 µM (top of the series) unless noted; series mostly up to 114 µM
# Potency is the fitted concentration of half-maximal effect.
row,Compound,Potency
1,CCC(NC(=O)Nc1ncccc1C)(C(F)(F)F)C(F)(F)F,"inconclusive: 95.3 µM [inhibitor, single point]"
2,CC(=O)c1c(-c2ccccc2)c2cc(Cl)ccc2n(C)c1=O,"inconclusive: 8.49 µM [inhibitor, single point]"
3,O=C1CCC/C(=N/NC(=O)c2sc3ccccc3c2Cl)C1,active: 16.9 µM
4,O=C1/C(=C/C=C/c2ccccc2)Oc2c1ccc(O)c2CN1CCN(CCO)CC1,inactive
5,Cc1sc(N)c(C(=O)c2cccc(C(F)(F)F)c2)c1C,"inconclusive: 27.8 µM [inhibitor, partial curve, poor fit]"
6,O=C1CSC(c2ccc(Cl)c(Cl)c2)N1c1nccs1 (stereo unspecified),"inconclusive: 16.9 µM [inhibitor, partial curve, poor fit]"
7,CCN(CC)c1ccc2cc(-c3nnc(-c4ccncc4)o3)c(=O)oc2c1,active: 75.7 µM
8,N#C/C(=C/c1ccc(N2CCOCC2)o1)c1nc2ccccc2[nH]1,active: 42.6 µM
9,O=S1(=O)C=C(Oc2ccc3ccccc3c2)c2ccccc21,"inconclusive: 2.39 µM [inhibitor, partial curve]"
10,COC(=O)CCc1nc2cc(Cl)ccc2n(Cc2ccccc2)c1=O,"inconclusive: 0.849 µM [inhibitor, full curve, poor fit]"
11,O=C(NN1C(=O)/C(=C/c2ccc(O)c(O)c2)SC1=S)c1ccccc1,inactive
12,COc1ccccc1NC(=O)c1sc2nc(Cc3ccccc3)cc(C(F)(F)F)c2c1N,inactive
13,CCOc1ccc(CCN2C(=O)C(=O)N([C@@H](CC(C)C)CN3CCC[C@@H]3CN3C(=O)C(=O)NC[C@@H]3Cc3ccccc3)C[C@@H]2CC(C)C)cc1,active: 0.0953 µM
14,CCOc1ccc(C(=O)Nc2c(C(=O)Nc3ccccc3F)oc3ccccc23)cc1OCC,"inconclusive: 0.849 µM [inhibitor, partial curve, poor fit]"
15,Cc1ccc2c(c1)C(c1ccccc1)CC(=O)O2 (stereo unspecified),active: 37.9 µM
16,Oc1ccc2ccc3cccc[n+]3c2c1,inactive

# As entered above.
# Value for Cc1ccc2c(c1)C(c1ccccc1)CC(=O)O2 (stereo unspecified) under Potency: active: 37.9 µM
# Value for O=C(NN1C(=O)/C(=C/c2ccc(O)c(O)c2)SC1=S)c1ccccc1 under Potency: inactive
# Value for O=C1/C(=C/C=C/c2ccccc2)Oc2c1ccc(O)c2CN1CCN(CCO)CC1 under Potency: inactive
# Value for CCN(CC)c1ccc2cc(-c3nnc(-c4ccncc4)o3)c(=O)oc2c1 under Potency: active: 75.7 µM
# Value for Oc1ccc2ccc3cccc[n+]3c2c1 under Potency: inactive
# Value for O=S1(=O)C=C(Oc2ccc3ccccc3c2)c2ccccc21 under Potency: inconclusive: 2.39 µM [inhibitor, partial curve]

# Carrying on.

row,Compound,Potency
1,O=C(c1ccco1)N1CCn2cccc2C1c1ccccc1 (stereo unspecified),"inconclusive: 33.8 µM [inhibitor, single point]"
2,COc1ccc(NC(=O)c2c(-c3ccccc3)c(-c3ccccc3)nn(C)c2=O)c(OC)c1,inactive
3,CN(CCc1ccccc1)C(=O)c1cc(COc2cccc(C(F)(F)F)c2)on1,"inconclusive: 30.1 µM [inhibitor, full curve]"
4,Cc1cc(/C=N/NC(N)=S)c(O)c(/C=N/NC(N)=S)c1,inactive
5,Cc1ccc2oc(=O)n(Cc3ccccc3)c2c1,"inconclusive: 2.39 µM [inhibitor, partial curve, poor fit]"
6,CC(=O)Nc1sc2c(c1-c1nc3ccccc3s1)CN(C(C)C)CC2,inactive
7,CSc1ncccc1C(=O)OCc1c(F)cccc1Cl,"inconclusive: 30.1 µM [inhibitor, full curve, poor fit]"
8,CCNc1ccc2noc3c2c1C(=O)c1ccccc1-3,active: 16.9 µM
9,NC(=O)c1c(NC(=O)c2ccccc2)sc2c1CCN(Cc1ccccc1)C2,active: 84.9 µM
10,CCOc1ccc(/C(C)=N/NC(=O)C(OC)c2ccccc2)cc1 (stereo unspecified),inactive
11,O=C(O)COc1ccc(NC(=O)C(c2ccccc2)c2ccccc2)cc1,active: 33.8 µM
12,CN1CCN(C2=CC3=CC(=C(C#N)C#N)CCC3CC2)CC1 (stereo unspecified),active: 6.75 µM
13,O=C(C(=Cc1ccc(O)cc1)c1ccccc1)c1ccccc1,"inconclusive: 21.3 µM [inhibitor, full curve, poor fit]"
14,Cc1ccc(NC(=O)CSc2nnc(-c3cc4occc4n3C)n2-c2ccccc2C)c(Cl)c1,"inconclusive: 8.49 µM [inhibitor, single point]"
15,O=S1(=O)NC(c2ccccc2)CC(CC2CCCCC2)O1 (stereo unspecified),inactive
16,Cc1cccc(N2C(=O)c3cccc4c(N)ccc(c34)C2=O)c1,active: 84.9 µM

# Target: Rap guanine nucleotide exchange factor 3 (Homo sapiens) (UniProt O95398)
# Test: Counterscreen qHTS for agonist of cAMP-regulated guanine nucleotide exchange factor 3 (EPAC1) (AID 1645889); note: nearly all actives have a fitted effect of over 40% in size; for activation: % of control where 0% means no effect
# Conditions: EPAC1 Rap1B-BODIPY-GDP exchange, fluorescence; activation: at 154 µM (top of the series) unless noted
# In short: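 Rap1B-BODIPY-GDP 250 nM + GDP 50 uM; cpds 7-pt, final 9.74 nM–152 uM (activator mode) or from 7.32 nM upwards (inhibitor mode); RT; FI 480/540 nm at 5 and 30 min, then ± cAMP, reread.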
Compound,Potency,activation
CCC(NC(=O)Nc1ncccc1C)(C(F)(F)F)C(F)(F)F,inactive,
CC(=O)c1c(-c2ccccc2)c2cc(Cl)ccc2n(C)c1=O,,inactive: 9.36% [at 30.8 µM]
O=C1CCC/C(=N/NC(=O)c2sc3ccccc3c2Cl)C1,active: 22.4 µM,
O=C1/C(=C/C=C/c2ccccc2)Oc2c1ccc(O)c2CN1CCN(CCO)CC1,"inconclusive: 0.0631 µM [activator, full curve, poor fit]",
O=C1CSC(c2ccc(Cl)c(Cl)c2)N1c1nccs1 (stereo unspecified),,inconclusive: 63.7% [activator]
CCN(CC)c1ccc2cc(-c3nnc(-c4ccncc4)o3)c(=O)oc2c1,"inconclusive: 31.6 µM [activator, partial curve]",
N#C/C(=C/c1ccc(N2CCOCC2)o1)c1nc2ccccc2[nH]1,active: 63.1 µM,
O=S1(=O)C=C(Oc2ccc3ccccc3c2)c2ccccc21,"inconclusive: 22.4 µM [activator, partial curve, poor fit]",
COC(=O)CCc1nc2cc(Cl)ccc2n(Cc2ccccc2)c1=O,"inconclusive: 0.02 µM [activator, full curve, poor fit]",
O=C(NN1C(=O)/C(=C/c2ccc(O)c(O)c2)SC1=S)c1ccccc1,"inconclusive: 11.2 µM [activator, partial curve]",
COc1ccccc1NC(=O)c1sc2nc(Cc3ccccc3)cc(C(F)(F)F)c2c1N,"inconclusive: 0.141 µM [activator, full curve, poor fit]",
Nc1ccccc1Oc1ccc2ccccc2c1,"inconclusive: 22.4 µM [activator, partial curve, poor fit]",
O=C(COc1cccc(OC(F)F)c1)Nc1ccc(SC(F)F)cc1,"inconclusive: 5.01 µM [activator, partial curve, poor fit]",
CCOc1ccc(CCN2C(=O)C(=O)N([C@@H](CC(C)C)CN3CCC[C@@H]3CN3C(=O)C(=O)NC[C@@H]3Cc3ccccc3)C[C@@H]2CC(C)C)cc1,,inconclusive: 15.4% [activator]
CCOc1ccc(C(=O)Nc2c(C(=O)Nc3ccccc3F)oc3ccccc23)cc1OCC,inactive,
COC(=O)c1cc2sc(Cl)cc2n1Cc1cc(C)ccc1C,,inconclusive: 35.9% [activator]
Cc1ccc(NC(=O)c2ccc(Cl)cc2Cl)c(C(=O)c2ccccc2)c1,,inconclusive: 66.8% [activator]
Cc1ccc2c(c1)C(c1ccccc1)CC(=O)O2 (stereo unspecified),"inconclusive: 0.0071 µM [activator, full curve, poor fit]",
Oc1ccc2ccc3cccc[n+]3c2c1,active: 39.8 µM,
O=C(c1ccco1)N1CCn2cccc2C1c1ccccc1 (stereo unspecified),,inconclusive: 59.4% [activator]

Compound,Potency,activation
CN1C(=O)/C(=C\c2ccc(N(C)C)cc2)OC1=S,active: 15.8 µM,
CCOC(=O)[C@@H](NC(=O)/C=C/[C@H]1O[C@@H](n2cc(C)c(=O)[nH]c2=O)C[C@@H]1O)C(C)C,,inconclusive: 48.2% [activator]
COc1ccc(NC(=O)c2c(-c3ccccc3)c(-c3ccccc3)nn(C)c2=O)c(OC)c1,"inconclusive: 39.8 µM [activator, partial curve]",
CN(CCc1ccccc1)C(=O)c1cc(COc2cccc(C(F)(F)F)c2)on1,,inconclusive: 13.6% [activator]
COc1ccccc1/C=C/C=C1\Oc2c(ccc(O)c2CN(C)C)C1=O,active: 63.1 µM,
Cc1cc(/C=N/NC(N)=S)c(O)c(/C=N/NC(N)=S)c1,active: 6.31 µM,
Cc1ccc2oc(=O)n(Cc3ccccc3)c2c1,"inconclusive: 0.0891 µM [activator, full curve, poor fit]",
CC(=O)Nc1sc2c(c1-c1nc3ccccc3s1)CN(C(C)C)CC2,active: 10 µM,
CSc1ncccc1C(=O)OCc1c(F)cccc1Cl,,inconclusive: 70.2% [activator]
COC(=O)C1=CC(C(=O)c2cccs2)=NN(c2ccc(OC)cc2)C1C(=O)OC (stereo unspecified),"inconclusive: 17.8 µM [activator, partial curve, poor fit]",
CCNc1ccc2noc3c2c1C(=O)c1ccccc1-3,active: 22.4 µM,
NC(=O)c1c(NC(=O)c2ccccc2)sc2c1CCN(Cc1ccccc1)C2,active: 39.8 µM,
CCOc1ccc(/C(C)=N/NC(=O)C(OC)c2ccccc2)cc1 (stereo unspecified),"inconclusive: 0.158 µM [activator, full curve, poor fit]",
O=C(O)COc1ccc(NC(=O)C(c2ccccc2)c2ccccc2)cc1,inactive,
CN1CCN(C2=CC3=CC(=C(C#N)C#N)CCC3CC2)CC1 (stereo unspecified),active: 14.1 µM,
O=C(C(=Cc1ccc(O)cc1)c1ccccc1)c1ccccc1,,inconclusive: 109% [activator]
Cc1ccc(NC(=O)CSc2nnc(-c3cc4occc4n3C)n2-c2ccccc2C)c(Cl)c1,"inconclusive: 15.8 µM [activator, partial curve, poor fit]",
O=S1(=O)NC(c2ccccc2)CC(CC2CCCCC2)O1 (stereo unspecified),"inconclusive: 12.6 µM [activator, partial curve, poor fit]",
Cc1cccc(N2C(=O)c3cccc4c(N)ccc(c34)C2=O)c1,active: 70.8 µM,
